# The full ranking holds about 33,000 sequences; the median of “E-score (-0.5 to 0.5)” is about -8e-05, and the highest 2% start at about 0.23. The list shows a part of the results.
# Target: T1, Nrg2 (UniProt P38082)
# T1 sequence: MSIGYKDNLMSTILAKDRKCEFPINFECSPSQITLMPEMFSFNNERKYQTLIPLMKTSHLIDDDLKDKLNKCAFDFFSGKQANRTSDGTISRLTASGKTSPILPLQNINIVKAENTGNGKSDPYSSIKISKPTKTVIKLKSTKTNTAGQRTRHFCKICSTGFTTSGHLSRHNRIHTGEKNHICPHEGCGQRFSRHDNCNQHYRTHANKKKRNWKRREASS
# Assay: PBM E-score (8-mer binding enrichment) (E-score (-0.5 to 0.5)); higher = stronger / more preferred TF binding
# Conditions: protein concentration: 100 nM; construct: GST-full length
# Summary of the method: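 E-scores (a modified Wilcoxon-Mann-Whitney statistic) were assigned by the Universal PBM Analysis Suite to every ungapped eight-base word pooled with its reverse complement. The input came from universal all-10-mer Agilent arrays made double-stranded by primer extension and probed with GST-tagged yeast transcription factors at about 100-200 nM. Fluorescent anti-GST detected bound protein, and masliner normalised the scans.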
row,Sequence,PBM E-score
1,AGTAACTC,0.0569
2,ATGTGCTA,-0.0357
3,AACTTGAG,-0.232
4,CGACCATC,-0.00804
5,CATCCACA,0.0702
6,GGACAGGA,-0.0722
7,ACGCTAAG,-0.295
8,ATCACGAT,-0.148
9,GTAGTACA,0.0751
10,GTGTGAAA,0.119
11,ATCGAAGG,0.00472
12,CCCACCGA,0.0724
13,GGCAGATA,-0.15
14,GCCGTCGC,-0.039
15,CTATCTGA,-0.0469
16,CAGGTCAC,-0.271
17,CGATTTCC,0.0794
18,TAATCTGA,0.0955
19,ACGCTTTA,-0.188
20,GGTTAAGA,0.0775
21,ACGCAGAG,0.0966
22,CAGGCGAC,-0.114

row,Sequence,PBM E-score
1,AATGCTAA,0.0106
2,GGCGATTA,-0.0236
3,AGCAAAGG,0.0268
4,AGTGTGGG,-0.0976
5,CTTTTATC,0.135
6,GAAACTCC,-0.182
7,CTTGTCCC,0.0971
8,ATTTCGAA,0.117
9,GGTGAAAC,-0.0289
10,AGTAAGAC,-0.014
11,ACATGACC,-0.0768
12,GTACGAGA,0.0861
13,TCAGATCA,0.0746
14,GCTTATAA,0.052
15,ACCGCAGA,-0.0429
16,TCTCGAGA,0.163
17,AGATCAAT,0.0887
18,AGGTCTAT,-0.00063
19,CGACGCTA,-0.0547
20,CTATATGC,0.0832
21,CCGATAAG,-0.0963
22,GATCTAGC,0.0211

row,Sequence,PBM E-score
1,AGCCGAGG,0.215
2,AATTTGAA,0.141
3,CTAGTATC,0.185
4,ACATGTTA,0.0181
5,TAACACCA,0.022
6,CATAAGCA,-0.103
7,AACATACT,0.0279
8,AGGTGTGC,-0.0759
9,ACATTATG,0.00928
10,AGCCTTAG,-0.206
11,GATTGAAA,0.0241
12,CCTCAGAG,-0.21
13,CCCGTGCA,-0.00345
14,TACGCGCA,0.18
15,AATACTCA,0.163
16,ACGACAGT,-0.145
17,GTCCCAGA,-0.19
18,AGTCTGGC,-0.36
19,CGAACATC,0.086
20,AGTGGAGA,0.0905
21,CCCAAAAG,-0.043
22,AAGGCTGG,-0.179

row,Sequence,PBM E-score
1,CTCACGAC,-0.175
2,ATAGGGGG,-0.364
3,ATAGTGGC,0.0613
4,ATCATACG,0.141
5,AAGGAACG,0.0193
6,ATACTGAA,0.00599
7,AACACCTG,-0.0343
8,AGCCGCCG,0.0509
9,GTTCTGTA,0.0845
10,CATACTGG,0.0286
11,ATACGAGC,0.0677
12,AGAACATA,0.164
13,ACTTCAGG,-0.0321
14,TTCCCAAA,0.0812
15,CAACGCCA,-0.0368
16,CATGCTGA,0.104
17,GCCCTATA,0.0607
18,CTTGACAC,-0.0866
19,ATCCGGCC,-0.00708
20,ACGTGCGC,-0.0374
21,TAAAAAGA,-0.0119
22,ACGACGAC,-0.128

row,Sequence,PBM E-score
1,CAGTGCGC,-0.224
2,ATGTGTAA,-0.102
3,GCTCGTCC,0.0551
4,GAACATCA,0.009
5,AGGCTATG,-0.264
6,CCAGGCGC,-0.0854
7,GAGTTAAC,-0.0596
8,CGTGATTA,0.102
9,AGTCAGAT,-0.0838
10,AACCAGCT,0.133
11,CTGGAACC,-0.0953
12,ACCCCAGG,-0.0209
13,CTTAACGC,-0.147
14,CGTTGACC,0.0512
15,CAGCTGGC,0.0512
16,CCAATGGA,0.0152
17,GAAGCATC,-0.0701
18,ACCAGGAC,-0.0139
19,ACAAGAAA,0.0532
20,AGAATGAG,-0.00914
21,AGGCGAGA,0.0131

# From the supplement of paper PMC3334620
